Results taken from PubChem BioAssay AID743255 (National Center for Advancing Translational Sciences (NCATS), 2014).
Among all 390,000 compounds or so, about 910 (0.23%) were called active. The shares of active, inactive and inconclusive entries below differ from those in the screen. Calls follow the shape of the dose curve; as a rule, active = well fitted inhibition curve with a large enough effect; inconclusive = small, poorly fitted or top-dose-only effect; inactive = no such curve, though single readings can be large or run the other way. Potencies of inconclusive entries are doubtful fits and often do not repeat.

Amino acid sequences for entries named in this document (tags omitted). A change or cut given only in a name is not applied to a line headed by its entry.
UniProt O94782: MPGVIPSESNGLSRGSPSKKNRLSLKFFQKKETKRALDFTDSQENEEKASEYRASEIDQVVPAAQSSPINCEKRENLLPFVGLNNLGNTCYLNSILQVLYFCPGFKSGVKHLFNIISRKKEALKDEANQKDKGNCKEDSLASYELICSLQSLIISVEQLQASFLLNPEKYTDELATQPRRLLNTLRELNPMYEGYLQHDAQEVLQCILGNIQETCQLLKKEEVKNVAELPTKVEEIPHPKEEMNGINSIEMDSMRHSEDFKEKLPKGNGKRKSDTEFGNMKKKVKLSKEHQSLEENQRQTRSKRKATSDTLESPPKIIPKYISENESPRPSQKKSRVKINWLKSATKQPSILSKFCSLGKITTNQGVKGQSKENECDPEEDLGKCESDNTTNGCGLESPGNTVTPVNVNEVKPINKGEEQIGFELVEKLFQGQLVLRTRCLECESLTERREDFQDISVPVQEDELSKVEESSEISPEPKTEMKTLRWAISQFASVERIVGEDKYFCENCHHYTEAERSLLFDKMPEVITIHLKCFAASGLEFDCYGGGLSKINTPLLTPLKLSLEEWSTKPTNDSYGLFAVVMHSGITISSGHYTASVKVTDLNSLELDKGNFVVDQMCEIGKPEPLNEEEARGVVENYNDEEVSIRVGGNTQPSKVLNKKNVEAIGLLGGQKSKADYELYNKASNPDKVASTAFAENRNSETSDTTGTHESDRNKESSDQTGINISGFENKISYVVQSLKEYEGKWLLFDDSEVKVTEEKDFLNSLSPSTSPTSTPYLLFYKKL

What follows are compounds tested against Ubiquitin carboxyl-terminal hydrolase 1 (Homo sapiens) (UniProt O94782) (assay: Inhibitors of USP1/UAF1: Primary Screen). Settings: recombinant USP1/UAF1, Ub-Rhodamine cleavage fluorescence; activity change, negative = inhibition: at 57.1 µM (top of the series).
How it was run: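 In this screen, compounds sit with the deubiquitinase complex (1nM) for 15 min at room temperature before Ub-Rho is added at 150nM final. Fluorescence rise is then followed for 6 reads every 60 seconds.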
% is scaled to controls: 0 for no effect and ±100 for the full control effect; potency is read from the fitted curve at half-maximal effect.
Also: nearly all actives have a fitted effect of over 60% in size.

Potency, inconclusive:
Cn1c(-c2ccc(C(F)(F)F)cc2)cc2onc(-c3ccccc3)c2c1=O 2.51 µM [inhibitor, full curve, poor fit]
Cc1ccc(N(CC(=O)Nc2cccc(Cl)c2C)S(=O)(=O)c2c(C)noc2C)cc1 5.62 µM [inhibitor, partial curve]
Cc1ccc(C)c(OCCn2c(C3CC(=O)N(Cc4ccc(F)cc4)C3)nc3ccccc32)c1 (stereo not drawn) 5.62 µM [inhibitor, partial curve, poor fit]
O=C(COc1ccc(S(=O)(=O)N2CCOCC2)cc1)Nc1ccc2c(c1)OCCO2 0.447 µM [inhibitor, full curve, poor fit]
O=C(c1ccc(Br)o1)N1CCN=C1SCc1cccnc1 0.794 µM [inhibitor, full curve]
Cc1ccc(N2OC3C(=O)NC(=O)C3C2c2ccco2)cc1 (stereo not drawn) 0.708 µM [inhibitor, full curve, poor fit]
O=C(NCc1ccccn1)[C@@H]1C[C@H]1[C@@H](NP(=O)(c1ccccc1)c1ccccc1)c1ccccc1 70.8 µM [inhibitor, partial curve, poor fit]
CCOC(=O)N1CCC(NC(=O)Cn2ncc3ccccc32)CC1 35.5 µM [inhibitor, single point]
CCN(Cc1ccccc1)C(=O)COC(=O)c1cc(Cl)nc(Cl)c1 0.282 µM [inhibitor, full curve, poor fit]
Cc1ccc(S(=O)(=O)Nc2ccc(NC(=O)Nc3cccc(C(F)(F)F)c3)cc2)cc1 56.2 µM [inhibitor, partial curve, poor fit]
CCc1c(C)nc2nncn2c1Nc1ccc(Cl)cc1 70.8 µM [inhibitor, partial curve, poor fit]
CCN(CC)c1ccc(/C=N\NC(=O)c2cccc3cc[nH]c23)cc1 28.2 µM [inhibitor, partial curve]
Cc1ccc(NCN2C(=O)c3ccccc3C2=O)cc1Cl 0.282 µM [inhibitor, full curve]
CC(C)(C)OC(=O)N1CCC(c2c(C(=O)NCCc3ccsc3)cnn2-c2ccccc2Cl)CC1 6.31 µM [inhibitor, single point]
CCC(CC)C(=O)OCc1cc(=O)n2nc(C3CCCCC3)sc2n1 56.2 µM [inhibitor, partial curve, poor fit]
Cc1ccc(CNC(=O)/C=C/c2ccc(S(=O)(=O)N3CCOCC3)cc2)cc1 44.7 µM [inhibitor, partial curve, poor fit]
O=S(=O)(Nc1nc(-c2sccc2Cl)cs1)c1cc(Cl)ccc1Cl 44.7 µM [inhibitor, partial curve, poor fit]
COc1ccc(S(=O)(=O)NCCc2nnc3ccc(SCC(=O)Nc4cc(C)cc(C)c4)nn23)cc1 44.7 µM [inhibitor, partial curve, poor fit]
Cc1ccc(C(C)C)c(OCCCN2CCc3ccccc3C2)c1 44.7 µM [inhibitor, partial curve]
CCOc1ccc2[nH]c3c(N4CCc5ccccc5C4)ncnc3c2c1 50.1 µM [inhibitor, partial curve, poor fit]
Cc1ccc(CN2CCNC(=O)C2CC(=O)N(Cc2c(C)nn(C)c2C)C2CC2)o1 (stereo not drawn) 10 µM [inhibitor, partial curve, poor fit]
NC(=O)C1C(=O)c2ccccc2C1(C[N+](=O)[O-])c1ccccc1 (stereo not drawn) 17.8 µM [inhibitor, partial curve]
COc1ccc(N2CC(NC(=O)COc3ccc(F)cc3)CC2=O)cc1OC (stereo not drawn) 0.631 µM [inhibitor, full curve]
CN(C)c1cccc(C(=O)OCC(=O)NC(=O)NCc2ccccc2)c1 50.1 µM [inhibitor, partial curve, poor fit]
Cc1ccccc1Cn1cc(S(=O)(=O)CC(=O)N2CCCCC2)c2ccccc21 39.8 µM [inhibitor, single point]
Cc1cc(N)ncc1[N+](=O)[O-] 0.316 µM [inhibitor, full curve, poor fit]
Cc1ccc(NC(=O)Cn2cc(S(=O)(=O)N3CCN(c4ccccc4F)CC3)c3ccccc3c2=O)cc1F 0.316 µM [inhibitor, full curve]
CN1Cc2sc(N)c(C#N)c2CC1(C)C 50.1 µM [inhibitor, partial curve, poor fit]

Potency, inactive:
CCC(=O)N/C(N)=N/c1nc(C)c2cc(C)c(C)cc2n1
Cc1ccc(-c2ccc(=O)n(Cc3cccc(Br)c3)n2)cc1
COc1cc(C=O)ccc1OS(=O)(=O)c1ccc(NC(C)=O)cc1
Cn1c(CN2CCCCC2)nc2cc(NS(=O)(=O)c3ccc(Cl)cc3)ccc21
CCC(C(=O)Nc1ccc(C(C)=O)cc1)n1cnc2nc3c(cc2c1=O)CCCC3 (stereo not drawn)
COc1ccc(/C=C(\C#N)C(=O)N2COCC2(C)C)cc1
Cn1cc(/C=C/c2cc[n+](C)cc2)c2cc(Cl)ccc21
N/C(=N\OC(=O)c1ccc(Cl)c(Cl)c1)c1ccccn1
COc1ccc(CNCc2ccccc2C(F)(F)F)cc1
N#Cc1ccc(-c2nc3ccc(Br)cn3c2Cc2ccccc2)cc1
COc1ccc(OC)c(CCNC(=O)c2cc3cccc4c3n2CC(C)S4)c1 (stereo not drawn)
CN(C)c1ccc(C(=O)C(O)c2ccccc2)cc1 (stereo not drawn)
C=CCn1c(SCC(=O)NCC2CCCO2)nnc1-c1ccncc1 (stereo not drawn)
Cc1nnc(C)n1/N=C/c1ccc(-c2ccccc2Cl)o1

Fetched by compound from the list above:
Potency, inactive:
CN(C)c1ccc(C(=O)C(O)c2ccccc2)cc1 (stereo not drawn)
CCC(C(=O)Nc1ccc(C(C)=O)cc1)n1cnc2nc3c(cc2c1=O)CCCC3 (stereo not drawn)
COc1cc(C=O)ccc1OS(=O)(=O)c1ccc(NC(C)=O)cc1
Cn1c(CN2CCCCC2)nc2cc(NS(=O)(=O)c3ccc(Cl)cc3)ccc21

Next part:

Activity change, negative = inhibition, inconclusive:
Cc1ccccc1NS(=O)(=O)c1ccc(S(=O)(=O)N2CCCC2)cc1 -12.5% [inhibitor]
